Source: paper PMC5681776
These are yes or no findings as the source states them, for the method shown. In cells and extracts the contact can be indirect. Some entries that bind do so weakly or less than the wild type.

Chains of the proteins cited; added tags and fusions are not shown.
UniProt Q15554: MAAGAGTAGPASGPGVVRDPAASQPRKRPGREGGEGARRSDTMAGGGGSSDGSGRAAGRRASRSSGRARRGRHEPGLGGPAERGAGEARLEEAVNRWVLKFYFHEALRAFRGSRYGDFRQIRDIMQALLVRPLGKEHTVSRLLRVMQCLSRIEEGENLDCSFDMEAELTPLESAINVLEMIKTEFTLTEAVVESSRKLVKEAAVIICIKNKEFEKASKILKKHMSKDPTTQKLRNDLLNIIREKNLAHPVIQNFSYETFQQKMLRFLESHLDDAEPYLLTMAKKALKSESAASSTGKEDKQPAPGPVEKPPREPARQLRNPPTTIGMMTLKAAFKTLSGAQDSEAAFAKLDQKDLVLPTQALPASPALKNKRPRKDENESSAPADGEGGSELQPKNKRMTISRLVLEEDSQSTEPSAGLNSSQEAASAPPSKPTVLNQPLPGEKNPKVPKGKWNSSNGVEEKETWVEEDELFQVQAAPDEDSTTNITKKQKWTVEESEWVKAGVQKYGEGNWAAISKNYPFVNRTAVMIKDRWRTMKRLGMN

Columns and labels:
[1] = target: telomeric repeat binding factor 2 (human (endogenous in DU 145 and HEK293T)) (UniProt Q15554); assay: proximity ligation; in situ PLA (Duolink kit) on HEK293T cells; 30 nuclei per group quantified; single primary antibodies, isotype control and PLA probes only as negative controls
[2] = target: telomeric repeat binding factor 2 (human (endogenous in DU 145 and HEK293T)) (UniProt Q15554); assay: co-IP; DU 145 or HEK293T cellular lysates in a low stringency buffer, immunoprecipitated with anti-TRF2 antibodies or control IgG; immunoblot of IP, input and immunodepleted fractions

binding [1]: binds | binding [2]: binds
B1: telomeric repeat binding factor 2-interacting protein 1 (protein, UniProt Q9NYB0 1-399)
chain: MAEAMDLGKDPNGPTHSSTLFVRDDGSSMSFYVRPSPAKRRLSTLILHGGGTVCRVQEPGAVLLAQPGEALAEASGDFISTQYILDCVERNERLELEAYRLGPASAADTGSEAKPGALAEGAAEPEPQRHAGRIAFTDADDVAILTYVKENARSPSSVTGNALWKAMEKSSLTQHSWQSLKDRYLKHLRGQEHKYLLGDAPVSPSSQKLKRKAEEDPEAADSGEPQNKRTPDLPEEEYVKEEIQENEEAVKKMLVEATREFEEVVVDESPPDFEIHITMCDDDPPTPEEDSETQPDEEEEEEEEKVSQPEVGAAIKIIRQLMEKFNLDLSTVTQAFLKNSGELEATSAFLASGQRADGYPIWSRQDDIDLQKDDEDTREALVKKFGAQNVARRIEFRKK
